# ± gives the standard deviation of the averaged measurements. Most values lie at the floor of the assay. Slopes are relative: functional sequences can read slightly below zero.
# Test system: Saccharomyces cerevisiae PS128 hsf1 delta, HSF1(1-493) fusion
# Assay: growth estimate (transactivation domain function in HSF1 fusion, heat-shock survival) (a.u. (slope of normalised read count over time)); higher = stronger growth at 37°C, i.e. more transactivation activity
# Settings: library: random library
row,Substance,growth estimate
1,ESLRACMTVCSSGERQHNAC,< -0.25
2,EHLRVTYMHFGFMSTCQLPN,< -0.25
3,SDQMLRWKVSKNGSVRPNSG,< -0.25
4,GARVIVAERSGRVSL,< -0.25
5,TERRESPSMIKYDGVGLSVR,< -0.25
6,WYLAVLAA,< -0.25
7,CKRVRI,< -0.25
8,AGKGAIVC,< -0.25
9,WRFYQRVRIILQAG,< -0.25
10,TIERGRRNWCENPGQGCVGR,< -0.25
11,GPAFYLGRKSPPRLVGVPAP,-0.245
12,PPKGPPGQTGVVRGYSALPR,< -0.25
13,LRRPMASSVWPMIANGIGL,< -0.25
14,ALISEQGTHPYASYRYN,< -0.25
15,AERFYVREYDETLVTTGGIV,< -0.25
16,PTVEQ,< -0.25
17,LTSESLAHLGTL,< -0.25
18,RGEYDYGGESTEQ,< -0.25
19,VRIARERTTSLNDMD,< -0.25
20,LGDGSGNVDKGQRSVQPSMH,< -0.25
21,AGTYVTVRRCNNHRLGQG,< -0.25
22,DIHSGWGVVRLTHSWLGGLR,< -0.25
23,LYHVDMVFPA,< -0.25
24,IALQCAKFRMYRGNFVATTS,< -0.25

row,Substance,growth estimate
1,DESRRRATSVLLRVPLQTLR,< -0.25
2,FSRPSPGL,< -0.25
3,KPASLASLCVMGQRFGLGAH,< -0.25
4,AKPGAQALLWQLAKPISD,< -0.25
5,WSHSGELS,< -0.25
6,MMRGAA,< -0.25
7,AILWTASHT,< -0.25
8,SEHS,< -0.25
9,LVGYDGYVHRVEANRGSGFR,< -0.25
10,EEWGVGQGPFRNRHAALGLW,< -0.25
11,RRLWRKAK,< -0.25
12,VSGGSLRHRLIPLGSVVP,< -0.25
13,YWPLGVQRVSFVWGRVLL,< -0.25
14,VENRIQSQRVSP,< -0.25
15,RGLNKGAVSRWKKILRYLSL,< -0.25
16,PLYHAGELGKARGWCPKRHG,< -0.25
17,FLSTRFRTL,< -0.25
18,QRTCSLWTRTSPGAIS,< -0.25
19,DTPALTRLELPSATGNVSNG,< -0.25
20,WSIAEHAIR,< -0.25
21,IAGGDQNRVPRAISSRHQAM,< -0.25
22,KAVLARYWPVRQFIRDGQLS,< -0.25
23,FHSLGYSGVSGVLRR,< -0.25
24,RVVVVSGTLRLRYPRRNVLV,< -0.25

row,Substance,growth estimate
1,WQVLYSVNVCTKRGYRRLNG,< -0.25
2,HGPNTDRHT,< -0.25
3,QPGA,< -0.25
4,IPW,-0.245
5,RYVLLREQT,< -0.25
6,RRSPLISNLFPRHGERRPKR,< -0.25
7,VRLKLLTIVGFSVTAHATFL,< -0.25
8,QEGPGFLSEGRYS,< -0.25
9,RIREYGTMWSRRVAKANAGV,< -0.25
10,WCGRGGQHLGKIKCPREVWA,< -0.25
11,RRGVEEDALDPQQPCGLITD,< -0.25
12,VDLGWANRGTTGRGG,< -0.25
13,VSYPFQVRGRTIPAKAKPAI,< -0.25
14,GVGQRYVDLESRLRGSRVGS,< -0.25
15,ATPRGEGHLRPRVSEYIGSY,< -0.25
16,SRLILAKASQPRPTSSRGVY,< -0.25
17,TAGGSWTRPIV,-0.245
18,TAEPKYLNAPVGDIAEELSL,< -0.25
19,LRTPADASWRNWGIPAFHHT,-0.209
20,CCEESFAQL,< -0.25
21,SLVILPGPARSVFPRYGSG,< -0.25
22,SLQREDLLQPWGVSIWIPGR,< -0.25
23,IPNKALITTTKK,< -0.25
24,LFPSRWRGFEKGRSPCEKSV,< -0.25

row,Substance,growth estimate
1,GDWVFIWFIFRV,< -0.25
2,FHSDGAGRVSFCRARGKHWC,< -0.25
3,SWDAGSAARDKNRCFGIPSP,< -0.25
4,FDSRYEAIALTDPIFRCWTQ,-0.203
5,GYRPATWWSADGRLCYIRIP,< -0.25
6,GYVIRAPVVLARMVQRNDGS,< -0.25
7,GFD,< -0.25
8,PDLIYRES,< -0.25
9,SGALARCAEVAKRALREVPH,< -0.25
10,AGLGVRSTIQRSGRTKMGGD,< -0.25
11,GWLSGRMPKHMKGKVGVRRQ,-0.152
12,DRSTMAAMALLGGKKGLSVR,< -0.25
13,LGIFANLLDSRHITYYNYSH,< -0.25
14,PLRSVNLRPFRLKPTI,< -0.25
15,PITCYTRKVLSRGPGQEFRS,< -0.25
16,NVRGMAFRARASSGPGCSYT,< -0.25
17,CGVGAVLVEKL,< -0.25
18,IAWVGGVRLWHGA,< -0.25
19,WVGR,< -0.25
20,WNSPDTAYPQAARDMFRSR,< -0.25
21,QHISQESGCWDINHRDLFYA,-0.121
22,IRLFRIECSHGARQGPRPLV,< -0.25
23,CFVRQLEVRSFSAIHGAVR,< -0.25
24,KDPASSYRLWYALDFFGRPP,< -0.25

row,Substance,growth estimate
1,IDMGGI,< -0.25
2,GFTEPWARSASVTFPSVFIT,< -0.25
3,EQDVIRLSSRNCAHTAQSVA,< -0.25
4,FPGPLRSCVRWRQ,< -0.25
5,SSHSLPWVWGPYHIGQSLFQ,-0.231
6,YAEWG,< -0.25
7,KTMVNYMCIISNGCYNKVLY,< -0.25
8,GFHRPGDSMYATRLSPTVPS,< -0.25
9,SVSCMFHILAV,< -0.25
10,LVRAFVPAPSFAFVLSH,< -0.25
11,DGPLFLFHGNQVVLWCIRAR,< -0.25
12,RISESPS,-0.245
13,FICPRLNRH,< -0.25
14,LTGKGGNQGDGRGR,< -0.25
15,QDQCREFIAALYAHLIVFGT,< -0.25
16,GALNVRLVGVSGSGKLNENG,< -0.25
17,RRTHVGKRVLCRYLITC,< -0.25
18,YMHNYANMI,< -0.25
19,RLLNRLLPL,< -0.25
20,HPYASYQRGVNVWVNRARKR,< -0.25
21,LNISYLMTWMRFGSTS,< -0.25
22,LMSGRHVVFKEYSNLSPLLY,< -0.25
23,ITGDYLPVPSVCVSGLIGSG,< -0.25
24,HCVHVQFVLLRTHTILEFL,< -0.25

row,Substance,growth estimate
1,NFGYTNAMLRLVGSSRICGM,< -0.25
2,TGRGAPTARLEGTVMGSRVR,< -0.25
3,LRI,-0.232 ± 0.026
4,CHGPCLYGQCRFD,< -0.25
5,NAGEPYRAGLRTAGVVWFLS,< -0.25
6,GKYD,-0.247
7,RRSIRDTC,< -0.25
8,GGLWFEVEMKADLFGSRSAS,< -0.25
9,SSTWAPLSSALLTENLPGGF,< -0.25
10,LPVGGYR,< -0.25
11,PGQRNRTPRNPDSSRL,-0.246
12,LIGITSPGC,< -0.25
13,ILDRVLRNINGRSWSVSTGL,< -0.25
14,RLNTGGSVFSVEGGPRGILA,< -0.25
15,LRLP,< -0.25
16,LRYFYLVYNKSYQGMRPY,< -0.25
17,EWVEGRQLG,-0.12
18,RQGKRAFHQQKRSM,< -0.25
19,RGLCKAVVKAASI,< -0.25
20,ALGRYKNSCQRARQIH,-0.245
21,GEVEKSRWRPIPNNYPRDTV,< -0.25
22,AGFRVLDGKDHPNSSTIPFR,< -0.25
23,FALEFIFTDFGDLSHLERNE,< -0.25
24,VVHSFPRCYVPGANALAGLY,-0.231

# Retrieved one by one from above, five records:
row,Substance,growth estimate
12,LIGITSPGC,< -0.25
22,IRLFRIECSHGARQGPRPLV,< -0.25
14,ALISEQGTHPYASYRYN,< -0.25
15,PITCYTRKVLSRGPGQEFRS,< -0.25
14,PLRSVNLRPFRLKPTI,< -0.25

# Carrying on:

row,Substance,growth estimate
1,LGRHFLQVPHVPAVPAPSST,< -0.25
2,RDGKAVQYLKYR,-0.246
3,GMGFVPLIQ,< -0.25
4,DREYSASASRTSMTPAATDH,< -0.25
5,RRRAC,< -0.25
6,CLTDSVFSC,< -0.25
7,HGMRQYPFPTLGQYPSKADR,< -0.25
8,CEGQSRASKEWAGGAPYHVE,< -0.25
9,NVLRGTARSCCKSYLRSERA,< -0.25
10,HQADLICRRRHPRAIR,< -0.25
11,VIPGRMCPAYQLSKDLTTIS,< -0.25
12,FRCQGECVSRPLVATRRVL,< -0.25
13,CQFFIFGCRQRVDADSV,< -0.25
14,QGFNSRPYFPVLYYQLRARY,< -0.25
15,PKRTPISNKSMVR,< -0.25
16,SDLGGSLVSDY,< -0.25
17,FRGVLGRQPERVSKGKQRRR,< -0.25
18,GWFESA,< -0.25
19,PPRVYEHAGHRLISGTGDGA,< -0.25
20,VRRG,< -0.25
21,LLSNPTSCFGSHAHLGS,-0.208
22,PNIPNRAELTQEYFSGPAI,< -0.25
23,RDRFGTYIELVAALPHVWAL,< -0.25
24,NTTLAEEPGG,< -0.25

# Given with bars between the fields: part of the list above
row | Substance | growth estimate
2 | EHLRVTYMHFGFMSTCQLPN | < -0.25
18 | YMHNYANMI | < -0.25
3 | GMGFVPLIQ | < -0.25
10 | HQADLICRRRHPRAIR | < -0.25

# Going on with the list:

row,Substance,growth estimate
1,LHVKLWRLSRRIVITRGQSE,< -0.25
2,FGGYKASQRGLAIRLLRRGG,< -0.25
3,QRCSGSHSGNDYKGKNSILP,-0.243
4,TELPDARPASKGGW,< -0.25
5,GNLYKQTVLSYYLCIGLIHP,< -0.25
6,FETLSVELGNLNGVTGATDG,< -0.25
7,FTSAELPLGVLGYLYKFWGV,< -0.25
8,KTASRGASLSCHDHFSSVAV,< -0.25
9,SSVQPHGGNSRSWIRLRGRC,< -0.25
10,TPTLRVQEALSFPLTPVIIA,< -0.25
11,APGPWRSMKSSGIRAMRLFI,< -0.25
12,LNDKLLRPSGLAVSGPEC,< -0.25
13,CIR,< -0.25
14,LSLSAG,< -0.25
15,QQVGSNCRVTAVGYPSTGSQ,< -0.25
16,GRGEACGKAWSGGVATKWGP,< -0.25
17,VGSYRQHTRGGVNSRHDPLG,< -0.25
18,SHQFATQRLRFCRKDLQCPH,< -0.25
19,KLGNAGTRTFNGTRLGPGPE,< -0.25
20,IVPVYSYTAFSSGSTERRCE,-0.234
21,LLSRRRRSRCDPNRLWAQLI,< -0.25
22,IDTWRERTSSDPSKHTVGGF,< -0.25
23,VTRTRSMAHSSGLRGSVQ,< -0.25
24,GNGS,< -0.25

# Source: the supplement of paper PMC5949888
